# Measured values taken from patent US20250215015A1 (THE REGENTS OF THE UNIVERSITY OF CALIFORNIA, priority 2022, published 2025).
# Values joined by “and” are separate entries in the source; they are usually repeats but may differ in a detail not shown here. Equal entries are not always repeated.
# Assay: Liposomal loading efficiency
# Assay type: physicochemical
# Conditions: pH gradient reversal, drug/lipid ratio 0.09
smiles,measurement,value
"CN[C@@H]1C[C@H]2O[C@@](C)([C@@H]1OC)n1c3ccccc3c3c4c(c5c6ccccc6n2c5c31)C(=O)N[C@H]4O [UCN-01, 7-hydroxystaurosporine]",liposomal loading efficiency,65% and > 50%
